# Test results taken from patent publication US12396997B2, “Methods of treatment with an iboga alkaloid” (priority 2022, dated 2025).
# Test system: special operations veterans with history of TBI
# Assay: Structural T1w MRI (FreeSurfer) regional volume and cortical thickness
# Format: in vivo, human
# Method: Structural imaging of the brain was also conducted on some of the subjects of Example 1. Gray matter constitutes about 40% of the brain and white matter constitutes about 60% of the brain. Gray matter contains most of the brain's neuronal cell nodes, it is fully developed once a person reaches their 20's and interprets sensor information from various parts of the body. White matter is made up of bundles which connect various gray matter areas, it develops throughout the 20's and peaks in middle age. Typical metrics analyzed in anatomical (T1-weighted. “T1w”) imaging include volume and/or shape of nuclei (e.g. caudate), volume and/or shape of ventricles of the brain, and cortical thickness (mm). These metrics can be used to study normal and abnormal neuroanatomy and are primarily used to quantify gray matter. A tool called FreeSurfer was applied to images for a T1w structural analysis (volume, cortical thickness) to adjust for bias, remove non-brain matter, segments by tissue, parcels the brain into standardized regions, and provides measurements of those regions. FreeSurfer measurements of whole brain volume, volume by tissue (gray, white, CSF), estimated intracranial volume (ICV), subcortical gray matter volume, cortical volume by region were done. […] In particular, analysis was done to determine if there was any loss in gray matter volume or cortical thickness, whether there was a loss in white matter volume or an increase in presence of white matter […].
# The fMRI images were also inspected to determine the difference in volume in regional areas of the brain from baseline to one month after treatment. FIG. 8A is a bar graph showing the effect size of a change in volume in 47 brain regions indicated along the x-axis. […] The fMRI images were also inspected for whole brain thickness at baseline and one month after treatment. […] FIG. 8B is a bar graph showing the effect size of a cortical thickness change for the brain regions indicated along the x-axis, from baseline to one month after treatment. […]
# [1] = baseline to one month after treatment
structure (smiles),measurement,setting,value
CCC1CC2CC3c4[nH]c5ccc(OC)cc5c4CCN(C2)C13 (stereo not drawn) [ibogaine],Regional volume change: cerebral white mater (left) and left ventral DC,[1],Increases in volume
same,Regional volume change: posterior corpus callosum and left choroid plexus,[1],Decreases in volume
same,"Regional cortical thickness change: left entorhinal cortex, left-lateral-orbitofrontal pole, parahippocampal gyrus, left insular cortex, right-pars triangularis",one-month after treatment,Increases in cortical thickness
